Experimental data reported in paper PMC5556109, “A combinatorial approach for the discovery of cytochrome P450 2D6 inhibitors from nature” (Scientific Reports, 2017).

Amino acid sequences for entries named in this document (tags omitted).
UniProt P10635, whole entry: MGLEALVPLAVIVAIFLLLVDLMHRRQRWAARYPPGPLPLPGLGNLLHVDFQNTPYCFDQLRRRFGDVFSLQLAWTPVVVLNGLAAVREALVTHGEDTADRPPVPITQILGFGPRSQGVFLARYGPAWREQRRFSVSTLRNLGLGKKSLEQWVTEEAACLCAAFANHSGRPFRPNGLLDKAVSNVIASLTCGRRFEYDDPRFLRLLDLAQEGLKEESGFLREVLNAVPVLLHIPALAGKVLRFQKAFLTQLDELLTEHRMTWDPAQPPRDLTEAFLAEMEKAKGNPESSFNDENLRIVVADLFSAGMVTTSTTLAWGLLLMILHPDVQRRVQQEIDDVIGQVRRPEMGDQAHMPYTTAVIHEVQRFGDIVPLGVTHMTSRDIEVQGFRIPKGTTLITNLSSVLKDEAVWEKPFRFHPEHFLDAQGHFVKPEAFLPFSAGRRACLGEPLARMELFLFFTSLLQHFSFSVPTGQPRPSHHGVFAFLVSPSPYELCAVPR

Molecular target: CYP2D6 (Homo sapiens, UniProt P10635)
Settings: recombinant enzyme

## CN[C@H]1CCc2cc(OC)c(OC)c(OC)c2-c2ccc(OC)c(=O)cc21 [Compound 12, Colcemid]
  classification of CYP2D6 inhibition (actives / weak actives / inactives): inactives (key: actives: those compounds were classified as active, which exhibited CYP2D6 IC50 values up to 10 µM; inactives showed less than 50 % total luminescence at a concentration of 100 µM)
